This is one part of the list. Most entries show no effect beyond the scatter of the controls.
These targets were tested with CN[C@@H]1C[C@H]2O[C@@](C)([C@@H]1OC)n1c3ccccc3c3c4c(c5c6ccccc6n2c5c31)C(=O)NC4 [staurosporine] (assay: log2 fold change of tryptic peptide abundance, ligand vs vehicle (limited proteolysis) (log2 ratio); higher = more trypsin-susceptible (destabilized)). Conditions: ligand concentration: 20 uM; sample: mouse liver crude lysate; replicate design: treated separately.

The chains behind the UniProt entries cited, without tags or fusion partners. Where a name states a change or a piece, a line headed by the entry shows the natural chain unless it says otherwise.
UniProt P54869: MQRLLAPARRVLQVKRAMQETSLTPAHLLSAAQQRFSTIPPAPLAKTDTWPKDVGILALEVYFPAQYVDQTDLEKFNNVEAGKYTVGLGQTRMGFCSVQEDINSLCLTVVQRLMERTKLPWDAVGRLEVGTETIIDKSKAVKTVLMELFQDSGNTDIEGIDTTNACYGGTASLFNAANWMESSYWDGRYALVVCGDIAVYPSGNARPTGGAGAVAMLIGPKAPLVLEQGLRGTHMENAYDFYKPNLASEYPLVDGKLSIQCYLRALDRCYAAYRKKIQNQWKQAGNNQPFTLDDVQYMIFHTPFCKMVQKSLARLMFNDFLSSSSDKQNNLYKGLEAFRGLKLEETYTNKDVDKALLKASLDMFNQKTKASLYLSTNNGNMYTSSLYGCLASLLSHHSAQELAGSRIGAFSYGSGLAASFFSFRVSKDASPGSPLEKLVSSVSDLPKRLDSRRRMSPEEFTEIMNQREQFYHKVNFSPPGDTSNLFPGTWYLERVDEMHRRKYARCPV
UniProt P58158: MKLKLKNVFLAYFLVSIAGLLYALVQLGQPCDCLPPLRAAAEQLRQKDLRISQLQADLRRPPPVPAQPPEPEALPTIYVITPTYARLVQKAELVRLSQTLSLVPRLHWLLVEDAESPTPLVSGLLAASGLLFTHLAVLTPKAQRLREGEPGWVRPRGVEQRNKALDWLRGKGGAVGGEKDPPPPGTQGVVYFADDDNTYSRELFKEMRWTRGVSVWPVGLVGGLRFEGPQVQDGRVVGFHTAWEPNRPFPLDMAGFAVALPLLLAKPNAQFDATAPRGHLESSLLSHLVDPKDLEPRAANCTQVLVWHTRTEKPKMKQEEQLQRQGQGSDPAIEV
UniProt P55041: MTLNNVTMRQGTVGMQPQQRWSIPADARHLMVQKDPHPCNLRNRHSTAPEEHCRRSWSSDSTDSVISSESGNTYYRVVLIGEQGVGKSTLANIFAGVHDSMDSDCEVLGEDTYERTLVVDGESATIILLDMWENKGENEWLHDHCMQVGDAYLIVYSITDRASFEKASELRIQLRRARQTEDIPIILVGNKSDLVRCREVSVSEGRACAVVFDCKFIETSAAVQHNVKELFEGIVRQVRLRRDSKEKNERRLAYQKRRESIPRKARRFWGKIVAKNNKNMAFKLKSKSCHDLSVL
UniProt P58006: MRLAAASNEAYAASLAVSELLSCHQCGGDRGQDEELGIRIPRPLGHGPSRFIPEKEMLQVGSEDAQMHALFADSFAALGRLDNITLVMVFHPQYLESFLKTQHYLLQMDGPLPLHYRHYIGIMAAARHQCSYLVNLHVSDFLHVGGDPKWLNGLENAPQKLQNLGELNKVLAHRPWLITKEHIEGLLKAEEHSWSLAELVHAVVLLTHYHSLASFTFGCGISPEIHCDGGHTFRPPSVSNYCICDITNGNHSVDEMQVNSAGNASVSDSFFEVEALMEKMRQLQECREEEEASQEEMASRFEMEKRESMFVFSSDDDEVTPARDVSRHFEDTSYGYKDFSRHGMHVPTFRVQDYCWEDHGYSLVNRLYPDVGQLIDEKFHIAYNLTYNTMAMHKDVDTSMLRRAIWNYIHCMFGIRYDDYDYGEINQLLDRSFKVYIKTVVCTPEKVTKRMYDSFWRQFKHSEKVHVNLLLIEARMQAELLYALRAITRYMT
UniProt P61022: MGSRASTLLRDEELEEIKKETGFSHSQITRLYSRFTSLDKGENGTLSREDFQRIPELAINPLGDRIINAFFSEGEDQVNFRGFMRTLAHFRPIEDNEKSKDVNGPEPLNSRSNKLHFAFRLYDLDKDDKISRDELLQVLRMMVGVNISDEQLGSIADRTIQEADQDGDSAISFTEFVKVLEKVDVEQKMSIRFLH
UniProt P58058: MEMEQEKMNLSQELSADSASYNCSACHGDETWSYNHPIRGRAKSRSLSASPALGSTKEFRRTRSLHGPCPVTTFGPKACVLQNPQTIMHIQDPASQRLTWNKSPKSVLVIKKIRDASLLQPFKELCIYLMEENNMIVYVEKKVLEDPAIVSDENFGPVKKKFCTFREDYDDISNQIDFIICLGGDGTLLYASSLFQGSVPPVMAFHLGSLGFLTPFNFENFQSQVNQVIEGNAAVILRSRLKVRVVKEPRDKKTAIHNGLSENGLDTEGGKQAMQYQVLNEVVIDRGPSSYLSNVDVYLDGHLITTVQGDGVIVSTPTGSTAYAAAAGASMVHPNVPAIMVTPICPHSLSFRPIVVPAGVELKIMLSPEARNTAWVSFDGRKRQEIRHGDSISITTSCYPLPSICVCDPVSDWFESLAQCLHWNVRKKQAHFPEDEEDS

Target | log2 fold change
UniProt P54869 (peptide sequence: VSKDASPGSPLEKLVSSVSDLPK, peptide start residue: 425) | 0.443
UniProt P58158 (peptide sequence: FEGPQVQDGR, peptide start residue: 226) | -0.105
UniProt P55041 (peptide sequence: QGTVGMQPQQR, peptide start residue: 10) | 0.616
UniProt P58006 (peptide sequence: VHVNLLLIEAR, peptide start residue: 465) | 0.121
UniProt P61022 (peptide sequence: DELLQVLR, peptide start residue: 133) | -0.131
UniProt P58058 (peptide sequence: SLHGPCPVTTFGPK, peptide start residue: 64) | 0.159

From the supplement of paper PMC12819154, “High-throughput peptide-centric local stability assay extends protein–ligand identification to membrane proteins, tissues and bacteria” (Nature Structural & Molecular Biology, 2025)
